# Reference: the supplement of paper PMC8728848
# The list shows a part of the results.
# B1: Gal 10 (Homo sapiens), Q05315 (protein)
# chain: MSLLPVPYTEAASLSTGSTVTIKGRPLVCFLNEPYLQVDFHTEMKEESDIVFHFQVCFGRRVVMNSREYGAWKQQVESKNMPFQDGQEFELSISVLPDKYQVMVNGQSSYTFDHRIKPEAVKMVQVWRDISLTKFNVSYLKR
# Experiments:
# Test in all cases: glycan array binding signal (z-score within array); higher = stronger binding
# Conditions in all cases: glycan notation: IUPAC condensed, linker removed
# [1] = biological target: GlcNAc(b1-4)GlcNAc
# How it was run: (§1)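 Glycan array data came from 3228 arrays in the Consortium for Functional Glycomics database, and only arrays with an available protein sequence were kept. Glycan names were put into IUPAC-condensed notation, and columns mapping to the same glycan were averaged. The binding signal is a within-array Z-score, averaged across arrays of one protein sequence run at different concentrations or buffers and across linkers. A negative Z-score can be read as non-binding.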
# [2] = biological target: GlcNAc(b1-4)GlcNAc(b1-4)GlcNAc
# How it was run: as §1
# [3] = biological target: GlcNAc(b1-4)GlcNAc(b1-4)GlcNAc(b1-4)GlcNAc(b1-4)GlcNAc
# How it was run: as §1
# [4] = biological target: GlcNAc(b1-4)GlcNAc(b1-4)GlcNAc(b1-4)GlcNAc(b1-4)GlcNAc(b1-4)GlcNAc
# How it was run: as §1
# [5] = biological target: GlcNAc(b1-4)[GlcNAc(b1-6)]GalNAc
# How it was run: as §1
# [6] = biological target: GlcNAc(b1-6)Gal(b1-4)GlcNAc
# How it was run: as §1
# [7] = biological target: GlcNAc(b1-6)GalNAc
# How it was run: as §1
# [8] = biological target: GlcNAc3Prop(b1-4)GlcNAc
# How it was run: as §1
# [9] = biological target: GlcNAc6S(b1-3)Gal(b1-4)GlcNAc
# How it was run: as §1
# [10] = biological target: Kdn(a2-3)Gal(b1-3)GalNAc
# How it was run: as §1
# [11] = biological target: Kdn(a2-3)Gal(b1-3)GlcNAc
# How it was run: as §1
# [12] = biological target: Kdn(a2-3)Gal(b1-4)Glc
# How it was run: as §1
# [13] = biological target: Kdn(a2-3)Gal(b1-4)GlcNAc
# How it was run: as §1
# [14] = biological target: Kdn(a2-3)Gal(b1-4)[Fuc(a1-3)]GlcNAc
# How it was run: as §1
# [15] = biological target: Kdn(a2-6)Gal(b1-4)GlcNAc
# How it was run: as §1
# [16] = biological target: Man(a1-2)Man(a1-2)Man(a1-3)Man
# How it was run: as §1
# [17] = biological target: Man(a1-2)Man(a1-2)Man(a1-6)[Man(a1-3)]Man
# How it was run: as §1
# [18] = biological target: Man(a1-2)Man(a1-3)Man
# How it was run: as §1
# [19] = biological target: Man(a1-2)Man(a1-3)[Man(a1-2)Man(a1-6)]Man
# How it was run: as §1
# [20] = biological target: Man(a1-2)Man(a1-3)[Man(a1-2)Man(a1-6)]Man(a1-6)[Man(a1-2)Man(a1-2)Man(a1-3)]Man
# How it was run: as §1
# [21] = biological target: Man(a1-2)Man(a1-3)[Man(a1-2)Man(a1-6)]Man(a1-6)[Man(a1-2)Man(a1-2)Man(a1-3)]Man(b1-4)GlcNAc(b1-4)GlcNAc
# How it was run: as §1
# [22] = biological target: Man(a1-2)Man(a1-3)[Man(a1-6)]Man(a1-6)[Man(a1-2)Man(a1-3)]Man(b1-4)GlcNAc(b1-4)GlcNAc
# How it was run: as §1
# [23] = biological target: Man(a1-2)Man(a1-6)[Man(a1-3)]Man(a1-6)[Man(a1-2)Man(a1-2)Man(a1-3)]Man
# How it was run: as §1
# [24] = biological target: Man(a1-2)Man(a1-6)[Man(a1-3)]Man(a1-6)[Man(a1-2)Man(a1-2)Man(a1-3)]Man(b1-4)GlcNAc(b1-4)GlcNAc
# How it was run: as §1
# [25] = biological target: Man(a1-3)[Man(a1-6)]Man
# How it was run: as §1
# [26] = biological target: Man(a1-3)[Man(a1-6)]Man(a1-6)[Man(a1-2)Man(a1-3)]Man(b1-4)GlcNAc(b1-4)GlcNAc
# How it was run: as §1
# [27] = biological target: Man(a1-3)[Man(a1-6)]Man(a1-6)[Man(a1-3)]Man
# How it was run: as §1
# [28] = biological target: Man(a1-3)[Man(a1-6)]Man(a1-6)[Man(a1-3)]Man(b1-4)GlcNAc(b1-4)GlcNAc
# How it was run: as §1
# [29] = biological target: Man(a1-3)[Man(a1-6)]Man(b1-4)GlcNAc(b1-4)GlcNAc
# How it was run: as §1
# [30] = biological target: Man(a1-3)[Man(a1-6)]Man(b1-4)GlcNAc(b1-4)[Fuc(a1-6)]GlcNAc
# How it was run: as §1
# [31] = biological target: Man(a1-6)Man
# How it was run: as §1
# [32] = biological target: Man(b1-4)GlcNAc
# How it was run: as §1
# [33] = biological target: MurNAc(b1-4)GlcNAc
# How it was run: as §1
# [34] = biological target: Neu5Ac(a2-3)Gal
# How it was run: as §1
# [35] = biological target: Neu5Ac(a2-3)Gal(b1-3)GalNAc
# How it was run: as §1
# [36] = biological target: Neu5Ac(a2-3)Gal(b1-3)GalNAc(b1-3)Gal(a1-4)Gal(b1-4)Glc
# How it was run: as §1
# [37] = biological target: Neu5Ac(a2-3)Gal(b1-3)GalNAc(b1-4)[Neu5Ac(a2-3)]Gal(b1-4)Glc
# How it was run: as §1
# [38] = biological target: Neu5Ac(a2-3)Gal(b1-3)GalNAc(b1-4)[Neu5Ac(a2-8)Neu5Ac(a2-3)]Gal(b1-4)Glc
# How it was run: as §1
# [39] = biological target: Neu5Ac(a2-3)Gal(b1-3)GalNAc6S
# How it was run: as §1
# [40] = biological target: Neu5Ac(a2-3)Gal(b1-3)GlcNAc
# How it was run: as §1
# [41] = biological target: Neu5Ac(a2-3)Gal(b1-3)GlcNAc(b1-2)Man
# How it was run: as §1
# [42] = biological target: Neu5Ac(a2-3)Gal(b1-3)GlcNAc(b1-2)Man(a1-3)[GlcNAc(b1-4)][Neu5Ac(a2-3)Gal(b1-3)GlcNAc(b1-2)Man(a1-6)]Man(b1-4)GlcNAc(b1-4)GlcNAc
# How it was run: as §1
# [43] = biological target: Neu5Ac(a2-3)Gal(b1-3)GlcNAc(b1-2)Man(a1-3)[Neu5Ac(a2-3)Gal(b1-3)GlcNAc(b1-2)Man(a1-6)]Man(b1-4)GlcNAc(b1-4)GlcNAc
# How it was run: as §1
# [44] = biological target: Neu5Ac(a2-3)Gal(b1-3)GlcNAc(b1-3)Gal(b1-3)GlcNAc
# How it was run: as §1
# [45] = biological target: Neu5Ac(a2-3)Gal(b1-3)GlcNAc(b1-3)Gal(b1-4)GlcNAc
# How it was run: as §1
binder,measurement,setting,value
B1,glycan array binding signal (z-score),[1],-0.102
same,glycan array binding signal (z-score),[2],-0.449
same,glycan array binding signal (z-score),[3],-0.206
same,glycan array binding signal (z-score),[4],0.432
same,glycan array binding signal (z-score),[5],-0.956
same,glycan array binding signal (z-score),[6],-0.355
same,glycan array binding signal (z-score),[7],-0.333
same,glycan array binding signal (z-score),[8],0.2
same,glycan array binding signal (z-score),[9],-0.059
same,glycan array binding signal (z-score),[10],0.569
same,glycan array binding signal (z-score),[11],-0.192
same,glycan array binding signal (z-score),[12],-0.657
same,glycan array binding signal (z-score),[13],0.159
same,glycan array binding signal (z-score),[14],-0.151
same,glycan array binding signal (z-score),[15],0.098
same,glycan array binding signal (z-score),[16],2
same,glycan array binding signal (z-score),[17],-0.515
same,glycan array binding signal (z-score),[18],0.88
same,glycan array binding signal (z-score),[19],-0.68
same,glycan array binding signal (z-score),[20],-0.669
same,glycan array binding signal (z-score),[21],0.376
same,glycan array binding signal (z-score),[22],-0.622
same,glycan array binding signal (z-score),[23],0.911
same,glycan array binding signal (z-score),[24],0.15
same,glycan array binding signal (z-score),[25],-0.378
same,glycan array binding signal (z-score),[26],-0.705
same,glycan array binding signal (z-score),[27],-0.048
same,glycan array binding signal (z-score),[28],-1.04
same,glycan array binding signal (z-score),[29],-0.387
same,glycan array binding signal (z-score),[30],0.257
same,glycan array binding signal (z-score),[31],-0.435
same,glycan array binding signal (z-score),[32],-0.064
same,glycan array binding signal (z-score),[33],-0.231
same,glycan array binding signal (z-score),[34],-0.467
same,glycan array binding signal (z-score),[35],-0.079
same,glycan array binding signal (z-score),[36],-0.265
same,glycan array binding signal (z-score),[37],-0.288
same,glycan array binding signal (z-score),[38],0.255
same,glycan array binding signal (z-score),[39],0.057
same,glycan array binding signal (z-score),[40],-0.573
same,glycan array binding signal (z-score),[41],1.03
same,glycan array binding signal (z-score),[42],-0.2
same,glycan array binding signal (z-score),[43],-0.522
same,glycan array binding signal (z-score),[44],0.801
same,glycan array binding signal (z-score),[45],-0.762

# Nothing new here: an excerpt of the list.
binder,measurement,setting,value
B1,glycan array binding signal (z-score),[6],-0.355
same,glycan array binding signal (z-score),[7],-0.333
same,glycan array binding signal (z-score),[8],0.2
same,glycan array binding signal (z-score),[9],-0.059
same,glycan array binding signal (z-score),[10],0.569
same,glycan array binding signal (z-score),[11],-0.192
same,glycan array binding signal (z-score),[12],-0.657
same,glycan array binding signal (z-score),[13],0.159
same,glycan array binding signal (z-score),[14],-0.151
same,glycan array binding signal (z-score),[15],0.098
same,glycan array binding signal (z-score),[16],2
same,glycan array binding signal (z-score),[17],-0.515
